4 molecules from PMC4974456 can be followed below.

The chains behind the UniProt entries cited, without tags or fusion partners.
UniProt P28033: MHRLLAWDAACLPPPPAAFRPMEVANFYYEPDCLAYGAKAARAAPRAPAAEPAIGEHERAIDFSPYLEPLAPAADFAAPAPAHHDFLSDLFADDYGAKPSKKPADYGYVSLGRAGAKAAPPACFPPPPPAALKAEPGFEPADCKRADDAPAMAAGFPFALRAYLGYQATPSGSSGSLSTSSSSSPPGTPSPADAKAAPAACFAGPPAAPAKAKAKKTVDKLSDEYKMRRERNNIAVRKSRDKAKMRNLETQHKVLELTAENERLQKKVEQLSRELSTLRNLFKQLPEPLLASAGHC

No constants are given. Whether binding was seen depends on the method and setting. In cells and extracts the contact can be indirect. Some binding calls cover weakened binding; strength is not graded here. For some assays here: Where a sequence is shown, tags or fusion partners need not be part of it.

Assay [1] has as its target T1, Flag-CRTC3 (from pcDNA-Flag-CRTC3) (UniProt Q91X84).
T1 sequence: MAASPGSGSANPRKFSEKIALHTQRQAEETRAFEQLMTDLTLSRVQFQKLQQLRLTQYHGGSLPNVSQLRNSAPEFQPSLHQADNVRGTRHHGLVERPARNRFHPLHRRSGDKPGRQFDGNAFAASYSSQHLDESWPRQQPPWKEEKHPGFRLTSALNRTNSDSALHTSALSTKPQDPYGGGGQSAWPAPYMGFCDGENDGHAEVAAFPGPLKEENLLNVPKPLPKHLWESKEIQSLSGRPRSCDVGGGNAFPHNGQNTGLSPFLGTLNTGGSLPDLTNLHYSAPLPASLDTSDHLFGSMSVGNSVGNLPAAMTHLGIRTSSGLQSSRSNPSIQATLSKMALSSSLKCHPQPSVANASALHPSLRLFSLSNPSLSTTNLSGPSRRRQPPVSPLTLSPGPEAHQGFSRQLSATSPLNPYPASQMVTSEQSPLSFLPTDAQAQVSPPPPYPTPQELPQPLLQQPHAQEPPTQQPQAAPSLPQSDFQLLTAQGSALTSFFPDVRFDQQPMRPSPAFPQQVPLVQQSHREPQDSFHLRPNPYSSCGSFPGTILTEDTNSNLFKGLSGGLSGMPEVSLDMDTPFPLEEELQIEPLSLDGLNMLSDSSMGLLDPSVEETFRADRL
The experiment in a line: co-IP; 293T cells co-transfected with pcDNA-Flag-CRTC3 and pcDNA-C/EBPβ, harvested after 36 h; IP with CRTC3, C/EBPβ or Flag antibody overnight at 4 °C, protein A/G agarose; blotted with CRTC3 and C/EBPβ antibodies.

Assay [2] concerns the target T2, CRTC3, endogenous in mouse adipocytes and adipose tissue (mouse (endogenous in BAT SVF cells, 3T3-L1 cells and adipose tissues)) (UniProt Q91X84).
T2 sequence: T1 sequence
The experiment in a line: co-IP; endogenous proteins; lysates of differentiated BAT SVF cells (methods: BAT cell line), differentiated 3T3-L1 cells and adipose tissue (BAT); IP with 2 ug antibody overnight at 4 °C, protein A/G agarose; western blot.

The target of a further assay is T3, Lkb1 in 293T cell lysate (UniProt Q15831).
T3 sequence: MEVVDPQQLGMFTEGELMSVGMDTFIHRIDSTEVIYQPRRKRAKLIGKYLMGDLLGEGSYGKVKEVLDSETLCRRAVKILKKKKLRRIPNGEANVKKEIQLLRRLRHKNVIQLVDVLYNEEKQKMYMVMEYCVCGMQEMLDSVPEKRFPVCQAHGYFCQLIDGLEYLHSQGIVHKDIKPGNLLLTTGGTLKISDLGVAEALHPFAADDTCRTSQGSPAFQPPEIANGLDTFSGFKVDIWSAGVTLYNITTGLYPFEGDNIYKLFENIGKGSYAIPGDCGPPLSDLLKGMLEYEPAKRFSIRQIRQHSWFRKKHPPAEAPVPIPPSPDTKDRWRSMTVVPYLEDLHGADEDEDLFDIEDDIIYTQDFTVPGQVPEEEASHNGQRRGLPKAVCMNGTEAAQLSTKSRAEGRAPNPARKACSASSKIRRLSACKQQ
The experiment in a line: co-IP; 293T cells transfected with pcDNA-Flag-CRTC3, harvested after 36 h; lysate (500 ug total protein) precleared with protein A/G agarose; IP with 2 ug Flag, Lkb1 or CRTC3 antibody overnight at 4 °C; washed with cold PBS; blotted with Lkb1 and CRTC3 antibodies.

The target in assay [3] is C/EBPβ (from pcDNA-C/EBPβ) (UniProt P28033). The experiment in a line: co-IP; 293T cells co-transfected with pcDNA-Flag-CRTC3 and pcDNA-C/EBPβ, harvested after 36 h; IP with CRTC3, C/EBPβ or Flag antibody overnight at 4 °C, protein A/G agarose; blotted with CRTC3 and C/EBPβ antibodies.
In assay [4] the target is T4, Lkb1, endogenous in mouse adipocytes and adipose tissue (mouse (endogenous in BAT SVF cells, 3T3-L1 cells and adipose tissues)) (UniProt Q9WTK7).
T4 sequence: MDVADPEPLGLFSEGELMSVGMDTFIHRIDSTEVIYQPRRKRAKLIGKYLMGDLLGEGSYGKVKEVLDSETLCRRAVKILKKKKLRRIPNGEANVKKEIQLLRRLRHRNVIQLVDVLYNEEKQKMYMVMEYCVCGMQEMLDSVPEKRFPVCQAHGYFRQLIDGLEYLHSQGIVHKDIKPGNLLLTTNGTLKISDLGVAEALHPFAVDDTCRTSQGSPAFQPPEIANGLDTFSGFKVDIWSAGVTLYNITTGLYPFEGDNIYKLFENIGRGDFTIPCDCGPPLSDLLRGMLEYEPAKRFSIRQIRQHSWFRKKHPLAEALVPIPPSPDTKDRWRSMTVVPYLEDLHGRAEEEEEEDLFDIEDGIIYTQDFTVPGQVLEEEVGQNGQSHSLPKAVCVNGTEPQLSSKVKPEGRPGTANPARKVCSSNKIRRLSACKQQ
The experiment in a line: co-IP; endogenous proteins; lysates of differentiated BAT SVF cells (methods: BAT cell line), differentiated 3T3-L1 cells and adipose tissue (BAT); IP with 2 ug antibody overnight at 4 °C, protein A/G agarose; western blot.

For the molecule “C/EBPβ (from pcDNA-C/EBPβ) (from UniProt P28033 1-296)”, the binding entry in assay [1] was “binds”. In the case of “C/EBPβ, endogenous in mouse adipocytes and BAT (from UniProt P28033 1-296)”, the binding entry in assay [2] is given as “binds”.

B1: Flag-CRTC3 (from pcDNA-Flag-CRTC3) (protein, UniProt Q91X84 1-619)
chain: T1 sequence
Consider B1, for which the binding result (in the assay with Lkb1 in 293T cell lysate; in assay [3]) was “binds” throughout.

B2: CRTC3, endogenous in mouse adipocytes and adipose tissue (protein, UniProt Q91X84 1-619)
chain: T1 sequence
As to B2, the binding entry in assay [4] is reported as “binds”.
